PubChem BioAssay (NCATS)
This list was built around the results that the source calls inconclusive (neither active nor inactive); the mix of calls is not that of the screen. Where the call is inconclusive, the potency comes from a doubtful curve fit. Calls of active or inactive are those of the source. Calls come from the whole dose curve; as a rule, active = well fitted cell-killing curve with a large enough effect; inconclusive = small, poorly fitted or top-dose-only effect, or effect the other way; inactive = no such curve, though single readings can be large or run the other way.

Assay: Quantitative High-Throughput drug screen in 47 multiple myeloma cell lines against the NCATS MIPE library collection: KHM11_PLB cell viability assay (AID 1918962); note: nearly all actives have a fitted effect of over 35% in size;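 for viability, % of DMSO control: 0% = media only wells and 100% = DMSO treated cells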
Settings: KHM11 myeloma cell viability, CellTiter-Glo ATP luminescence, 48 h; viability, % of DMSO control: at 45.8 µM (top of the series) unless noted
Method in brief: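 Primary qHTS used for cherry-picking: cells at 500/well, library compounds for 48 h (37C, 5% CO2), luminescent ATP assay.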
Potency is the fitted concentration of half-maximal effect.

Structure (SMILES) | Potency | viability, % of DMSO control
COc1ccc(OC)c(-c2nnc3ccc(-c4ccc(OC)c(O[C@@H]5CCOC5)c4)nn23)c1 | active: 7.43 µM | –
CC(C)(Sc1ccc(CCN(CCCCC2CCCCC2)C(=O)NC2CCCCC2)cc1)C(=O)O | inconclusive: 0.0209 µM [cytotoxic, full curve, poor fit] | –
NC(=NCCCCCCN=C(N)N=C(N)Nc1ccc(Cl)cc1)N=C(N)Nc1ccc(Cl)cc1 | active: 5.9 µM | –
O=C(O)c1ccc(O)c2ncc(N3CCOCC3)cc12 | – | inactive: 136%
COc1cc(-c2nn(C3CCC(N4CCN(C(C)=O)CC4)CC3)c3ncnc(N)c23)ccc1NC(=O)c1cc2ccccc2n1C (stereo not drawn) | inconclusive: 3.32 µM [cytotoxic, partial curve, poor fit] | –
N#CC(=C(N)Sc1ccc(N)cc1)c1ccccc1C(F)(F)F | active: 0.418 µM | –
Fc1ccc(Cl)cc1-c1nc(Nc2ccncc2)c2nccnc2n1 | inconclusive: 0.0743 µM [cytotoxic, full curve, poor fit] | –
CCNC(=O)Nc1ccc(Oc2ncnc(N)c2C=NOC)cc1Cl | inconclusive: 5.9 µM [cytotoxic, partial curve, poor fit] | –
Cc1cc(Nc2cc(N3CCN(C)CC3)nc(C=Cc3ccccc3)n2)n[nH]1 | inconclusive: 10.8 µM [cytotoxic, full curve] | –
COc1cc2c(cc1-c1c(C)noc1C)ncc1[nH]c(=O)n([C@H](C)c3ccccn3)c12 | active: 2.96 µM | –
c1ccc([C@H]2CN3CCSC3=N2)cc1 | inconclusive: 0.0093 µM [rising, full curve, poor fit] | –
Cc1ccc(-c2ncn(-c3ccc(Nc4nccc(-c5cccc(N6CCOCC6)c5)n4)cc3)n2)cn1 | active: 0.118 µM | –
COc1cc(OC2CCN(C)CC2)ccc1Nc1ncc2c(n1)n(C1CCCC1)c(=O)n2C | active: 6.62 µM | –
Cc1cc(OCCCS(C)(=O)=O)cc(C)c1-c1cccc(COc2ccc3c(c2)OC[C@H]3CC(=O)O)c1 | inconclusive: 14.8 µM [cytotoxic, partial curve] | –
CC1CNc2c(cccc2S(=O)(=O)N[C@@H](CCCN=C(N)N)C(=O)N2CC[C@@H](C)C[C@@H]2C(=O)O)C1 (stereo partly drawn) | – | inactive: 114%
CN1CC(=O)NC1=NC(=O)Nc1cccc(Cl)c1 | active: 14.8 µM | –
CN(C)CCN1C(=O)c2cccc3cc(N)cc(c23)C1=O | active: 7.43 µM | –
C1=CCOCc2cc(ccc2OCCN2CCCC2)Nc2nccc(n2)-c2cccc(c2)OCC1 | active: 1.66 µM | –
O=C1CCC(N2C(=O)c3ccccc3C2=O)C(=O)N1 (stereo not drawn) | – | inactive: 106%

Structure (SMILES) | Potency | viability, % of DMSO control
O=S(=O)(NCCNCC=Cc1ccc(Br)cc1)c1cccc2cnccc12 | active: 9.35 µM | –
Cc1cccc(N(C)C(=S)Oc2ccc3ccccc3c2)c1 | – | inactive: 111%
C[C@]12CCC(=O)C=C1CC[C@@H]1[C@H]2[C@@H](O)C[C@@]2(C)[C@H]1CC[C@]2(O)C(=O)CO | inconclusive: 0.001 µM | –
Nc1nc2c(ncn2COC(CO)CO)c(=O)[nH]1 | active: 20.9 µM | –
N#CC[C@H](C1CCCC1)n1cc(-c2ncnc3[nH]ccc23)cn1 | inconclusive: 20.9 µM [cytotoxic, partial curve, poor fit] | –
NCCCC(N)(C(=O)O)C(F)F (stereo not drawn) | – | inactive: 98.1%
CCCCN1CCC(CNC(=O)c2c3n(c4ccccc24)CCCO3)CC1 | active: 11.8 µM | –
CC(=O)NCCC(=O)N[C@@H](CCC(N)=O)C(=O)N[C@@H](CO)C(=O)N[C@@H](CCC(N)=O)C(=O)N[C@@H](CCC(N)=O)C(=O)N[C@H](C(=O)N[C@@H](Cc1ccccc1)C(=O)N[C@]1(C)CCCCCCC=CCCC[C@@](C)(C(=O)N[C@@H](CCC(N)=O)C(=O)N[C@@H](CC(N)=O)C(N)=O)NC(=O)[C@H](CC(C)C)NC(=O)[C@H](CC(C)C)NC(=O)[C@@H](CCCNC(=N)N)NC(=O)[C@H](Cc2c[nH]c3ccccc23)NC(=O)[C@H](CC(C)C)NC(=O)[C@H](CC(N)=O)NC1=O)[C@H](C)O | active: 18.7 µM | –
COc1cccc2nc(-c3cccs3)nc(NN3C(=O)C=C(C)C3=O)c12 | active: 0.0526 µM | –
Cc1ccc(S(=O)(=O)OCC(=O)Nc2ccc(C(=O)O)c(O)c2)cc1 | inconclusive: 18.7 µM [cytotoxic, partial curve] | –
O=c1c(O)c(-c2ccc(O)cc2O)oc2cc(O)cc(O)c12 | – | inactive: 111%
CC(C)NC[C@@H](C(=O)N1CCN(c2ncnc3c2[C@H](C)C[C@H]3O)CC1)c1ccc(Cl)cc1 | active: 14.8 µM | –
CN(C)c1nc(Cc2ccc(NC(=O)c3ccc4ccccc4c3)cc2)nc(Cl)c1CC(=O)O | – | inactive: 109%
Cc1c(C(=O)NN2CCCCC2)nn(-c2ccc(Cl)cc2Cl)c1-c1ccc(Cl)cc1 | – | inconclusive: 83.9% [cytotoxic]
CCN1CCN(c2ccc(Nc3cc(N(C)C(=O)Nc4c(Cl)c(OC)cc(OC)c4Cl)ncn3)cc2)CC1 | inconclusive: 2.96 µM [rising, partial curve, poor fit] | –
NC(=O)c1cnccn1 | inconclusive: 0.296 µM [rising, full curve, poor fit] | –
FC(F)c1nc2ccccc2n1-c1nc(N2CCOCC2)nc(N2CCOCC2)n1 | active: 0.469 µM | –
O=c1[nH]nc(OCCCc2ccc(Cl)cc2)c(NCc2cccnc2)c1Br | active: 2.96 µM | –
CCCCOc1c(C(=O)c2c(F)cc(C)cc2F)cnc2n[nH]cc12 | active: 3.72 µM | –

Laid out differently: entries from further up
CC(C)NC[C@@H](C(=O)N1CCN(c2ncnc3c2[C@H](C)C[C@H]3O)CC1)c1ccc(Cl)cc1
  Potency: active: 14.8 µM
CN(C)c1nc(Cc2ccc(NC(=O)c3ccc4ccccc4c3)cc2)nc(Cl)c1CC(=O)O
  viability, % of DMSO control: inactive: 109%
